According to the supplement of paper PMC10849652:
The list shows a part of the results.

Chains of the proteins cited; added tags and fusions are not shown. Lines headed by an entry give the natural chain unless they say otherwise; changes in a name come on top.
UniProt Q86U86, whole entry, looked up: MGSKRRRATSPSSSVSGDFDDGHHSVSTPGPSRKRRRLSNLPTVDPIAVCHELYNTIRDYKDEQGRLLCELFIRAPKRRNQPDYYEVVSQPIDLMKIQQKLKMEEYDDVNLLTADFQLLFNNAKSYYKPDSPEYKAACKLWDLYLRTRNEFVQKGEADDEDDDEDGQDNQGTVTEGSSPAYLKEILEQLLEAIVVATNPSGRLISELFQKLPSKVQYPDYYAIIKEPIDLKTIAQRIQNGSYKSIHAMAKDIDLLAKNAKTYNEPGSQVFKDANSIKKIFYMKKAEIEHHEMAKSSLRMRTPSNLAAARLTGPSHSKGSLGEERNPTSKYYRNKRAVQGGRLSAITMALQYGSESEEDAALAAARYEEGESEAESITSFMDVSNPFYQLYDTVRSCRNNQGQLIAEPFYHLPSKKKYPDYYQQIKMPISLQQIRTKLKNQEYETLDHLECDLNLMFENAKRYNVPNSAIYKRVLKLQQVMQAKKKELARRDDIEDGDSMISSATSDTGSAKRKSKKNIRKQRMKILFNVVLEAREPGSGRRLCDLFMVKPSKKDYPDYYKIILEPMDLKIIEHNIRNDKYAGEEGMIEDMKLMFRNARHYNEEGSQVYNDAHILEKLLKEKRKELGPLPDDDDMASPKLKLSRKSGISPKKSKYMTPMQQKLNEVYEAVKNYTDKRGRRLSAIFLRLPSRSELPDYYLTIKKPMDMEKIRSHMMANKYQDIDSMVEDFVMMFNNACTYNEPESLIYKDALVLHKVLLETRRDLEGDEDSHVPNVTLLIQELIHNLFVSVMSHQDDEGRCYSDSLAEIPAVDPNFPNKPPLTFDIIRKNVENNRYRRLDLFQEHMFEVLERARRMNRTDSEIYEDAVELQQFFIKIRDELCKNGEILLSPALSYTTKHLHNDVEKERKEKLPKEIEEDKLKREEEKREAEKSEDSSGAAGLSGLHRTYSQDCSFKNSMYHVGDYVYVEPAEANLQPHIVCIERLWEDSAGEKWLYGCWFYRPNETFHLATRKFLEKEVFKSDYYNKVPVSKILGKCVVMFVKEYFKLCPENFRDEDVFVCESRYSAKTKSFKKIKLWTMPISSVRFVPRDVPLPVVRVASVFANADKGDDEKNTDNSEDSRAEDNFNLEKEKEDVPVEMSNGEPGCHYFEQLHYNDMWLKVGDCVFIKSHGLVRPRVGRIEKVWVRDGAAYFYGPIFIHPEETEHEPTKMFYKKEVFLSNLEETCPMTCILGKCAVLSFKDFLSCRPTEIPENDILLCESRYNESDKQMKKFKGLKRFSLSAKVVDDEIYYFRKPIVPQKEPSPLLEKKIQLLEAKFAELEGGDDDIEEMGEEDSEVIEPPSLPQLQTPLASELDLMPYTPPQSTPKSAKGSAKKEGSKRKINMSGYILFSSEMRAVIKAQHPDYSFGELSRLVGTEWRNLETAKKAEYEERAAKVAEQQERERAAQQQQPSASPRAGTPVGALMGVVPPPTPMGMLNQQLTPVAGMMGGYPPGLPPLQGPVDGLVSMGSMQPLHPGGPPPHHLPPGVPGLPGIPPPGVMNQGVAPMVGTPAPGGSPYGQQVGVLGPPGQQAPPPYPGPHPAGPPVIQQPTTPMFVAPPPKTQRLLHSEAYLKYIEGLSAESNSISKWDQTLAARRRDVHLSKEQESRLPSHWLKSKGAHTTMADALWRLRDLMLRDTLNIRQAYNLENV
UniProt Q15154: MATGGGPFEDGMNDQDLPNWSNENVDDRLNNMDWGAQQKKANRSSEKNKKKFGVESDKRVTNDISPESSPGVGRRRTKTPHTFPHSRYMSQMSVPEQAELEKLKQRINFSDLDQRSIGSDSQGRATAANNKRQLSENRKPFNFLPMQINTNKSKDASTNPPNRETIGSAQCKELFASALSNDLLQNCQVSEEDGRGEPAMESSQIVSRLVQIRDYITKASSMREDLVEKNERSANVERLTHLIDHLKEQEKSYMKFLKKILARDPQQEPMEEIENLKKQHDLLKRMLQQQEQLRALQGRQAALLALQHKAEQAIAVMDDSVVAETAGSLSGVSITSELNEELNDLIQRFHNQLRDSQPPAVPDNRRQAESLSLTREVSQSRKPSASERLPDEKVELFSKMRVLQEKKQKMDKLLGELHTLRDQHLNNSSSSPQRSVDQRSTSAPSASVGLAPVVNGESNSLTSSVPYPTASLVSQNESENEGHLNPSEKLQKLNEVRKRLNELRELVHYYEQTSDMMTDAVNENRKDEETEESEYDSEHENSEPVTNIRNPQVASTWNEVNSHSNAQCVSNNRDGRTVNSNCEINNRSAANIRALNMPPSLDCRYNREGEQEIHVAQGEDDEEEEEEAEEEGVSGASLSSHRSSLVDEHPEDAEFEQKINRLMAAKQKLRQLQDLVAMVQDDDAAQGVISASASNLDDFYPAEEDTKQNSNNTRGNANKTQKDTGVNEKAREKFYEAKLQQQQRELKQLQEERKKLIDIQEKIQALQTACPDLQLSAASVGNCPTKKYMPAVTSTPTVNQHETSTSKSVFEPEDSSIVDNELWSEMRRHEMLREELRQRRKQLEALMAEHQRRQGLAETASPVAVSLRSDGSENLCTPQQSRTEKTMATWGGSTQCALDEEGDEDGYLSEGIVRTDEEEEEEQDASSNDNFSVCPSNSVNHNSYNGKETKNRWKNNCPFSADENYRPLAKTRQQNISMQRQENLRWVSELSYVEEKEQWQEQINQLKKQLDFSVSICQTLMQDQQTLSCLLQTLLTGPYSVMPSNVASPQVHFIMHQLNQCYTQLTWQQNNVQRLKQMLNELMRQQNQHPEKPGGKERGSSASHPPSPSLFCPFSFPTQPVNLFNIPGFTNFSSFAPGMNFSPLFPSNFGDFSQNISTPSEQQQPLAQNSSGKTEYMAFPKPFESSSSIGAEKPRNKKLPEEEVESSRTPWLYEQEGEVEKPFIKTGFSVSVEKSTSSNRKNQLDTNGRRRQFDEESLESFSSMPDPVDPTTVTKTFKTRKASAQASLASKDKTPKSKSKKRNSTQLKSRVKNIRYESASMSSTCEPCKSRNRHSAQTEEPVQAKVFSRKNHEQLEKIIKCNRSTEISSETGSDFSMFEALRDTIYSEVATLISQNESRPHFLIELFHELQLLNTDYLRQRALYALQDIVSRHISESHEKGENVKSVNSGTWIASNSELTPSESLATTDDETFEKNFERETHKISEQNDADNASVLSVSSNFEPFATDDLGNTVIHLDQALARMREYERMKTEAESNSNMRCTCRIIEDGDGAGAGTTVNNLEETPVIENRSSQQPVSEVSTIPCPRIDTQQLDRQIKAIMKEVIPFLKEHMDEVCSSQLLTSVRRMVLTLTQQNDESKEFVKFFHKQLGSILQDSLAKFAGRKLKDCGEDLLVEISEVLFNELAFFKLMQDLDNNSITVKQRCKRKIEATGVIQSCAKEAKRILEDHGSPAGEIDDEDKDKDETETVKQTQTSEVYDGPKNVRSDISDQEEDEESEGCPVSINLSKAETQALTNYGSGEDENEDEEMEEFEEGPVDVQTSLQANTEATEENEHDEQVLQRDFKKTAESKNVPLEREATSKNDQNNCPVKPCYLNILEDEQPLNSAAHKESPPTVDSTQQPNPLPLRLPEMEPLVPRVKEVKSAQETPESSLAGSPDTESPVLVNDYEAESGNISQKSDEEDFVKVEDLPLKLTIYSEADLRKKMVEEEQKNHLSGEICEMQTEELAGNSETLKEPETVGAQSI
UniProt O43933: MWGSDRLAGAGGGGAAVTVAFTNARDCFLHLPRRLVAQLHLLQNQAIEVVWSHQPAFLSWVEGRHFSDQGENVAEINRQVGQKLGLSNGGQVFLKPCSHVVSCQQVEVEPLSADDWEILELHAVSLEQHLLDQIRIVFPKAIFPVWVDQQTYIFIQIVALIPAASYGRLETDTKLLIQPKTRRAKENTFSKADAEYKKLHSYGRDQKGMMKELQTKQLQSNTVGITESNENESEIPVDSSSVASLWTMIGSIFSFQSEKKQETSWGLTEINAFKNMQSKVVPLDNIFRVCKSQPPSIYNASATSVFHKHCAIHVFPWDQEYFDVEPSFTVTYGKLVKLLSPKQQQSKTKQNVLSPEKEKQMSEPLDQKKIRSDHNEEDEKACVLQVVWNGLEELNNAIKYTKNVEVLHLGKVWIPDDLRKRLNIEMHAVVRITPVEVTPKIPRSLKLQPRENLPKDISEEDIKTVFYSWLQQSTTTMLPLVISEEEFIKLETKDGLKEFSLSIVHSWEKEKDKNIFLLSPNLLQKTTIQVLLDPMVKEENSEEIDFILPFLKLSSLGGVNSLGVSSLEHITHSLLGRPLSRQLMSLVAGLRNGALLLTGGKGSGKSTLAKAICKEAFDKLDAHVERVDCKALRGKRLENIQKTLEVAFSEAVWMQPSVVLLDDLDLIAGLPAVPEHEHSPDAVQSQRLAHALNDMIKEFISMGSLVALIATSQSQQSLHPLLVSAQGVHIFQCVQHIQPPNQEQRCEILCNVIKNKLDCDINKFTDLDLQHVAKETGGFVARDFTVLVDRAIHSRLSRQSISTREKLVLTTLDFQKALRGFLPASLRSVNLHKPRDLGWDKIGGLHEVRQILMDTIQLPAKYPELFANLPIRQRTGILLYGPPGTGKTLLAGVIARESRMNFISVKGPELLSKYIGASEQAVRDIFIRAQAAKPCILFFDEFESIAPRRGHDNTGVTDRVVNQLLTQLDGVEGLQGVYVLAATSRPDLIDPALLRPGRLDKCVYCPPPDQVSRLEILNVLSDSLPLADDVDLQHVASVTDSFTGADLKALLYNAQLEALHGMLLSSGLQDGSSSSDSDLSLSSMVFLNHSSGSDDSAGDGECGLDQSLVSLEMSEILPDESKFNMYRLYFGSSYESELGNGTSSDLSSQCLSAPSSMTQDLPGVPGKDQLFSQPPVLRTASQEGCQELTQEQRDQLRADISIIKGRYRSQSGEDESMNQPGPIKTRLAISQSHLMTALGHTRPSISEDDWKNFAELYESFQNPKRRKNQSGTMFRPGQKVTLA
UniProt O60658: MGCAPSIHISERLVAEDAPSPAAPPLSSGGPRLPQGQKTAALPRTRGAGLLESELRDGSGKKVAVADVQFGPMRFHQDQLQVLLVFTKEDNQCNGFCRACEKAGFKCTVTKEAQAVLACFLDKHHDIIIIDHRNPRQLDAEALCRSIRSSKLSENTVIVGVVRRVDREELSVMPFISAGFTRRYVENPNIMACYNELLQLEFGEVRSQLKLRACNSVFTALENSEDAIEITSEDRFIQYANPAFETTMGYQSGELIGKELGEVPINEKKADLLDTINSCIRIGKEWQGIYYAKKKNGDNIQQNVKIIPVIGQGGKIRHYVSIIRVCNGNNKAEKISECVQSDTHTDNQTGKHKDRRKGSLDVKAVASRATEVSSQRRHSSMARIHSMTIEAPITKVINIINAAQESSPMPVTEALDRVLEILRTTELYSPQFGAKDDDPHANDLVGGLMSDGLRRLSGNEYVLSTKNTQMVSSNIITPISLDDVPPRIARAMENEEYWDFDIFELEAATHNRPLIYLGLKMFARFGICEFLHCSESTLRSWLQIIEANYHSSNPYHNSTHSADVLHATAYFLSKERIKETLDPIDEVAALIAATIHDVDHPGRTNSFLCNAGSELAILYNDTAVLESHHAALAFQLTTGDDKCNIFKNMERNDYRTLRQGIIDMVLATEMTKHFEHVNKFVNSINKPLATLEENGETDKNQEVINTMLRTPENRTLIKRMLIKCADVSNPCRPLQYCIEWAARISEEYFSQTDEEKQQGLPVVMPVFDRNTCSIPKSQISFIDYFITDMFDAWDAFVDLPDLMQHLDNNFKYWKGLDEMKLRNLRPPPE
UniProt P60673: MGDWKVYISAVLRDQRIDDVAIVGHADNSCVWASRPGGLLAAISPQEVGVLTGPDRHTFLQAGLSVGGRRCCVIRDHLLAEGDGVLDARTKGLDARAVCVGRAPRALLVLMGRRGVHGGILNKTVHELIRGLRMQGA
UniProt Q96MG8: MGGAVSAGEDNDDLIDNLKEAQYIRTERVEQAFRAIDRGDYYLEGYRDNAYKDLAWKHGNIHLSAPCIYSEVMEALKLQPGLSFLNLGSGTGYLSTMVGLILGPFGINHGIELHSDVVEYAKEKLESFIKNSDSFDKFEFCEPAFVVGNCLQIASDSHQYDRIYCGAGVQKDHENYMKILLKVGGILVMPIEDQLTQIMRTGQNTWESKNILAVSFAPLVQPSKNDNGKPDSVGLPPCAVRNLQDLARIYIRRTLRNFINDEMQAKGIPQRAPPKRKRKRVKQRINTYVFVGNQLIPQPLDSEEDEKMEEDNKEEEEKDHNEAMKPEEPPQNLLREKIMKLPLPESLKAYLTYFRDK
UniProt Q9UBM1: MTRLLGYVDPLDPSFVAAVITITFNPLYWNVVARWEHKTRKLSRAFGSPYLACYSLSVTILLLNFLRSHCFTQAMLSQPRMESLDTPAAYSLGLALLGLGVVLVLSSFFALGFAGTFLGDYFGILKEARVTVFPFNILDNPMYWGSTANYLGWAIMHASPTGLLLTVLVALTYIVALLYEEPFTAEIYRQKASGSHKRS

What was measured:
Assay in all cases: log2 fold change, soluble protein after heating vs DMSO (PISA); higher = thermal stabilisation; K562 lysate, 10 uM; active = over 0.2 and 3.5 SD of the protein, either way, in both replicates (recomputed)
lapatinib = compound: CS(=O)(=O)CCNCc1ccc(-c2ccc3ncnc(Nc4ccc(OCc5cccc(F)c5)c(Cl)c4)c3c2)o1 [lapatinib]
In short: (§1)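 To prepare the extract, K562 pellets were dounce-homogenised in PBS pH 7.4 with 1 mM MgCl2, giving crude material at 1 mg/mL protein. This was treated with 10 μM compound for 30 min, then heated in aliquots for 3 min over 48°C-58°C before pooling and addition of NP-40 to 0.5% at 4°C. Centrifugation at 21,000xg for 90 min left soluble protein in the supernatant, which TMTpro 16plex LC-MS/MS quantified with equalised channel sums. Results are log-two fold changes in thermal stability compared with solvent controls, from duplicates.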

pictilisib = compound: CS(=O)(=O)N1CCN(Cc2cc3nc(-c4cccc5[nH]ncc45)nc(N4CCOCC4)c3s2)CC1 [pictilisib]
In short: as §1

crizotinib = compound: C[C@@H](Oc1cc(-c2cnn(C3CCNCC3)c2)cnc1N)c1c(Cl)ccc(F)c1Cl [crizotinib]
In short: as §1

[1] = compound: C[C@H](C1=CC=C(C=C1)C(=O)NC2=C3C=CNC3=NC=C2)N
In short: as §1

duvelisib = compound: C[C@H](Nc1ncnc2nc[nH]c12)c1cc2cccc(Cl)c2c(=O)n1-c1ccccc1 [duvelisib]
In short: as §1

gandotinib = compound: Cc1cc(Nc2cc(CN3CCOCC3)c3nc(C)c(Cc4ccc(Cl)cc4F)n3n2)n[nH]1 [gandotinib]
In short: as §1

tozasertib = compound: Cc1cc(Nc2cc(N3CCN(C)CC3)nc(Sc3ccc(NC(=O)C4CC4)cc3)n2)n[nH]1 [tozasertib]
In short: as §1

doramapimod = compound: Cc1ccc(-n2nc(C(C)(C)C)cc2NC(=O)Nc2ccc(OCCN3CCOCC3)c3ccccc23)cc1 [doramapimod]
In short: as §1

bafetinib = compound: Cc1ccc(NC(=O)c2ccc(CN3CC[C@H](N(C)C)C3)c(C(F)(F)F)c2)cc1Nc1nccc(-c2cncnc2)n1 [bafetinib]
In short: as §1

[2] = compound: Cc1cccc(CC(=O)N2CCc3c2ccc(-c2cn(C)c4ncnc(N)c24)c3F)n1
In short: as §1

Measured: log2 fold change

PBX2 (UniProt P40425)
inactive: lapatinib -0.017 | pictilisib -0.062 | crizotinib 0.039 | [1] -0.089 | duvelisib 0.006 | gandotinib -0.038 | tozasertib 0 | doramapimod -0.023 | bafetinib -0.016 | [2] -0.017

PFKFB1 (UniProt P16118)
inactive: lapatinib -0.173 | pictilisib -0.042 | [1] 0.069 | duvelisib -0.038 | gandotinib -0.049 | tozasertib 0.125 | bafetinib -0.149 | [2] 0.031

PEX7 (UniProt O00628)
inactive: lapatinib -0.008 | pictilisib -0.124 | [1] 0.028 | duvelisib -0.119 | gandotinib -0.041 | tozasertib 0.095 | bafetinib 0.047 | [2] 0.012

PBRM1 (UniProt Q86U86)
inactive: lapatinib 0.014 | pictilisib 0.02 | crizotinib -0.027 | [1] 0.12 | duvelisib 0.046 | gandotinib -0.083 | tozasertib -0.061 | doramapimod 0.138 | bafetinib -0.054 | [2] -0.02

PCGF5 (UniProt Q86SE9)
inactive: lapatinib -0.125 | pictilisib 0.063 | crizotinib -0.08 | duvelisib 0.021 | tozasertib -0.063 | doramapimod -0.086 | bafetinib 0.026

PDIA3 (UniProt P30101)
inactive: lapatinib -0.014 | pictilisib 0.005 | crizotinib 0.063 | [1] 0.044 | duvelisib -0.003 | gandotinib -0.054 | tozasertib -0.008 | doramapimod -0.019 | bafetinib 0.006 | [2] -0.08

PGAM5 (UniProt Q96HS1)
inactive: lapatinib -0.023 | pictilisib -0.003 | crizotinib -0.016 | [1] -0.039 | duvelisib -0.006 | gandotinib 0.002 | tozasertib -0.007 | doramapimod 0.002 | bafetinib -0.02 | [2] 0.027

PCM1 (UniProt Q15154)
inactive: lapatinib -0.014 | pictilisib -0.04 | crizotinib -0.02 | [1] 0.015 | duvelisib -0.006 | gandotinib -0.028 | tozasertib 0 | doramapimod -0.008 | bafetinib -0.033 | [2] 0.013

PEX11B (UniProt O96011)
inactive: lapatinib 0.026 | pictilisib 0 | crizotinib -0.086 | [1] -0.232 | duvelisib 0.003 | gandotinib -0.11 | tozasertib -0.027 | doramapimod 0.026 | bafetinib -0.063 | [2] 0.658

PDSS2 (UniProt Q86YH6)
inactive: lapatinib 0.004 | pictilisib 0.032 | crizotinib -0.013 | [1] 0.049 | duvelisib -0.082 | gandotinib 0.012 | doramapimod 0.011 | bafetinib -0.099 | [2] -0.085

PDHA1 isoform 4 (UniProt P08559)
inactive: lapatinib -0.011 | pictilisib -0.019 | crizotinib -0.08 | [1] 0.133 | duvelisib 0.083 | gandotinib -0.103 | tozasertib 0.058 | doramapimod 0.035 | bafetinib -0.022 | [2] -0.053

PEX13 (UniProt Q92968)
inactive: lapatinib 0.105 | pictilisib -0.114 | crizotinib -0.091 | [1] -0.076 | duvelisib -0.075 | gandotinib 0 | tozasertib 0.008 | doramapimod 0.007 | bafetinib -0.151 | [2] 0.038

PDCD7 (UniProt Q8N8D1)
inactive: crizotinib -0.096 | tozasertib 0.105 | doramapimod 0.202

PEX1 (UniProt O43933)
inactive: lapatinib -0.088 | crizotinib -0.074 | tozasertib -0.314 | doramapimod -0.037

PCLAF (UniProt Q15004)
inactive: pictilisib 0.015 | crizotinib 0.024 | [1] -0.079 | duvelisib 0.037 | gandotinib 0.108 | tozasertib -0.029 | doramapimod 0.009 | bafetinib -0.01 | [2] 0.05

PCBP2 (UniProt F8W0G4)
inactive: pictilisib 0.087 | duvelisib 0.358 | tozasertib -0.069 | bafetinib -0.223

PCBP2 (UniProt F8VRH0)
inactive: lapatinib -0.148 | crizotinib 0.023 | [1] -0.116 | gandotinib -0.042 | doramapimod -0.01 | [2] 0.072

PCM1 isoform 5 (UniProt Q15154)
inactive: crizotinib -0.132 | tozasertib 0.024 | doramapimod -0.042

PECR (UniProt Q9BY49)
inactive: tozasertib -0.053

PEX5 (UniProt J3KPV0)
inactive: tozasertib 0.19

PCK1 (UniProt P35558)
inactive: lapatinib -0.084 | pictilisib -0.11 | [1] -0.896 | gandotinib 0.363 | bafetinib -0.095 | [2] 0.711

PCGF1 (UniProt Q9BSM1)
inactive: [1] -0.167 | duvelisib -0.083 | gandotinib 0.143 | tozasertib -0.108 | [2] 0.235

PDE8A (UniProt O60658)
inactive: pictilisib 0.132 | crizotinib 0.028 | doramapimod -0.121 | bafetinib 0.109

PCMTD2 (UniProt Q9NV79)
inactive: crizotinib 0.104 | tozasertib 0.253 | doramapimod 0.006

PFN3 (UniProt P60673)
inactive: lapatinib -0.199 | crizotinib -0.046 | [1] -0.458 | gandotinib 0.119 | tozasertib 0.155 | doramapimod 0.083 | [2] 0.193

PDP1 isoform 2 (UniProt Q9P0J1)
inactive: duvelisib 0.009 | tozasertib -0.022

PEX3 (UniProt P56589)
inactive: lapatinib -0.148 | crizotinib -0.114 | [1] -0.188 | duvelisib 0.011 | gandotinib -0.061 | tozasertib 0.24 | doramapimod 0.046 | [2] -0.093

PCGF3 isoform 2 (UniProt Q3KNV8)
inactive: crizotinib -0.135 | doramapimod -0.17

PDE3B (UniProt Q13370)
inactive: [1] 0.091 | duvelisib 0.101 | gandotinib 0.139 | [2] -0.019

PER1 (UniProt O15534)
inactive: crizotinib -0.027 | [1] -0.046 | duvelisib -0.418 | gandotinib 0.035 | doramapimod 0.06 | [2] 0.095

PEX10 isoform 2 (UniProt O60683)
inactive: pictilisib -0.109 | bafetinib -0.355

9 neighbouring entries already listed, quoted:
PCK1 (UniProt P35558)
inactive: lapatinib -0.084 | pictilisib -0.11 | [1] -0.896 | gandotinib 0.363 | bafetinib -0.095 | [2] 0.711

PCGF1 (UniProt Q9BSM1)
inactive: [1] -0.167 | duvelisib -0.083 | gandotinib 0.143 | tozasertib -0.108 | [2] 0.235

PDE8A (UniProt O60658)
inactive: pictilisib 0.132 | crizotinib 0.028 | doramapimod -0.121 | bafetinib 0.109

PCMTD2 (UniProt Q9NV79)
inactive: crizotinib 0.104 | tozasertib 0.253 | doramapimod 0.006

PFN3 (UniProt P60673)
inactive: lapatinib -0.199 | crizotinib -0.046 | [1] -0.458 | gandotinib 0.119 | tozasertib 0.155 | doramapimod 0.083 | [2] 0.193

PDP1 isoform 2 (UniProt Q9P0J1)
inactive: duvelisib 0.009 | tozasertib -0.022

PEX3 (UniProt P56589)
inactive: lapatinib -0.148 | crizotinib -0.114 | [1] -0.188 | duvelisib 0.011 | gandotinib -0.061 | tozasertib 0.24 | doramapimod 0.046 | [2] -0.093

PCGF3 isoform 2 (UniProt Q3KNV8)
inactive: crizotinib -0.135 | doramapimod -0.17

PDE3B (UniProt Q13370)
inactive: [1] 0.091 | duvelisib 0.101 | gandotinib 0.139 | [2] -0.019

(next part)

PDCD6 isoform 2 (UniProt O75340)
inactive: [1] 0.025 | gandotinib -0.077 | [2] 0.031

PCMTD1 (UniProt Q96MG8)
inactive: tozasertib 0.051

PEX12 (UniProt O00623)
inactive: lapatinib -0.039 | [1] -0.353 | gandotinib -0.155 | [2] -0.069

PDIK1L (UniProt Q8N165)
inactive: duvelisib 0.141

PEMT isoform 2 (UniProt Q9UBM1)
inactive: lapatinib 0.118 | [1] -0.125 | gandotinib -0.163 | [2] -0.354

PDE4DIP (UniProt E9PS60)
inactive: crizotinib -0.034 | duvelisib -0.077 | gandotinib 0.233 | tozasertib -0.026 | doramapimod 0.075 | [2] 0.147
active: [1] -0.688

PER2 (UniProt O15055)
inactive: [1] -0.333 | gandotinib -0.18 | [2] -0.201

PCGF6 (UniProt Q9BYE7)
inactive: lapatinib 0.237 | crizotinib -0.08 | [1] 0.108 | duvelisib -0.011 | gandotinib -0.027 | doramapimod -0.004 | [2] -0.051

PEAK1 (UniProt Q9H792)
inactive: pictilisib 0.048 | crizotinib 0.059 | [1] 0.111 | duvelisib -0.111 | gandotinib -0.114 | doramapimod -0.049 | bafetinib -0.03 | [2] 0.001

PEX6 (UniProt Q13608)
inactive: pictilisib 0.18 | [1] -0.051 | duvelisib -0.031 | gandotinib 0.069 | tozasertib 0.073 | bafetinib 0.011 | [2] 1.34

PARPBP (UniProt Q9NWS1)
inactive: pictilisib -0.215 | [1] -0.177 | duvelisib -0.028 | gandotinib 0.087 | tozasertib -0.011 | bafetinib 0.004 | [2] 0.045

PGAP2 isoform 2 (UniProt Q9UHJ9)
inactive: tozasertib -0.085

PDE4A (UniProt P27815)
inactive: pictilisib -0.083 | crizotinib 0.022 | [1] -0.177 | duvelisib 0.16 | gandotinib 0.055 | tozasertib -0.021 | doramapimod 0.035 | bafetinib -0.073 | [2] -0.018

PDIA4, A0A499FI48
active: [1] 1.32
inactive: crizotinib -0.063 | duvelisib -0.101 | gandotinib -0.18 | doramapimod -0.039 | [2] -0.154
